Source: publication PMC8672621

Protein sequences, listed by entry. Tags and fused reporters are not part of them. Lines headed by an entry give the natural chain unless they say otherwise; changes in a name come on top.
UniProt Q01974: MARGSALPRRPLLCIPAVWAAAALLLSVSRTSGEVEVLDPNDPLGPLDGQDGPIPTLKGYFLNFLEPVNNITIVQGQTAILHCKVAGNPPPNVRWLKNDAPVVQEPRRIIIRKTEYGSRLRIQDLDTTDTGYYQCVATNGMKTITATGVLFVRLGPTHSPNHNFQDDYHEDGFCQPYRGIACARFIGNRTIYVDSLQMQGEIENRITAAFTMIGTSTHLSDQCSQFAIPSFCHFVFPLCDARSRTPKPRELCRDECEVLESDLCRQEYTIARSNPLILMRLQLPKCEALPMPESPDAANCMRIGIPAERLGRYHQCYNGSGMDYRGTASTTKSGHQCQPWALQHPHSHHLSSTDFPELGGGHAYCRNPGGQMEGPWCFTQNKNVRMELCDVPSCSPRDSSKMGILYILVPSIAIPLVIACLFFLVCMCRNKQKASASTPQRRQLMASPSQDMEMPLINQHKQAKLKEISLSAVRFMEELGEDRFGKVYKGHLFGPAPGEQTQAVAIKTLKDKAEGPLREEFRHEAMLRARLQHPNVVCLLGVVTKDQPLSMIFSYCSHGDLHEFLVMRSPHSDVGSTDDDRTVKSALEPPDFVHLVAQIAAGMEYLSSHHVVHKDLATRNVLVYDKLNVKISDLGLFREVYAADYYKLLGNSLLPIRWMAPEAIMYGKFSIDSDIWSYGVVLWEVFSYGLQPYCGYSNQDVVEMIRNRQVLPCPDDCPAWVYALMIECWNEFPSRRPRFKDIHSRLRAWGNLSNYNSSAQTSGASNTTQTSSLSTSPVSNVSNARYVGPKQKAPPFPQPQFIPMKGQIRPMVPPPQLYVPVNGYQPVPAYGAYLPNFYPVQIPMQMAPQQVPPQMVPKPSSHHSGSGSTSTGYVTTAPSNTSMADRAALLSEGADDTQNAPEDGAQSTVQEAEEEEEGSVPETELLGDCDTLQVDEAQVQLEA

Target: T1, V5-tagged active WNT11 (human) (UniProt O96014)
T1 sequence: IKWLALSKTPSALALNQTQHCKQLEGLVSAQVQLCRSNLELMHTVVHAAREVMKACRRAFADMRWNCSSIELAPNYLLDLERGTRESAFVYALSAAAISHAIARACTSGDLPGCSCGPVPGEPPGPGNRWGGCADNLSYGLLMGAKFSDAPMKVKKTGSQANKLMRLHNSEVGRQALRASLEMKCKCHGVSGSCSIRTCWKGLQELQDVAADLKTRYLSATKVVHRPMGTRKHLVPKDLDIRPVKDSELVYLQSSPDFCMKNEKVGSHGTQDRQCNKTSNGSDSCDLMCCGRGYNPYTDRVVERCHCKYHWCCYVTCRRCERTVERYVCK
Test: co-IP; MCF-7 cells expressing ROR2 constructs transfected with V5-WNT11; 24 h later proteins crosslinked 30 min with 1 mM DSS in PBS + 1 mM MgCl2; lysis in 50 mM Tris/HCl pH 8.0, 150 mM NaCl, 1% NP-40; 500 ug protein with 1 ug V5 antibody or normal rabbit IgG 16 h at 4 °C, protein A/G agarose; ROR2 detected by western blot

With “ROR2-ΔΔ (amino acids 304-943) (from UniProt Q01974) (domain or fragment)” the binding was “no binding”.

No constants are given. Whether binding was seen depends on the method and setting. In cells and extracts the contact can be indirect. Sequences can lack the tags named with a protein.
